# From PMC8293630
# Amino acid sequences for entries named in this document (tags omitted). Residues count along the entry.
# UniProt P07766, residues 23-207: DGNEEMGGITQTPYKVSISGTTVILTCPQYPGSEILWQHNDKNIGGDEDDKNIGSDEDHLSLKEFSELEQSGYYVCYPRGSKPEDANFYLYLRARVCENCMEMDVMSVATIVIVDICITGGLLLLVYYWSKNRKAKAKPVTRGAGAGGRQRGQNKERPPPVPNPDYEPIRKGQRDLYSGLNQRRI
# No constants are given. Whether binding was seen depends on the method and setting. In cells and extracts the contact can be indirect. Some entries that bind do so weakly or less than the wild type.
# Molecular target: CD3ε, endogenous in J76 Jurkat cells (human (endogenous in Jurkat J76)) (UniProt P07766)
# Test: co-IP; J76 CD8+ 1G4 cells with mono-biotinylated UCHT1-Fab' or biotinylated UCHT1 mAb (anti-CD3ε) for 5 min at 37°C or on ice, ± A770041; lysis in 0.5% DDM, 150 mM NaCl, 20 mM Tris pH 8.0; streptavidin Sepharose 1 h at 4°C; immunoblot of ε, β (HA), ζ; ratios to ε
substance,measurement,value
"CD3ζ (ζζ), endogenous in J76 Jurkat cells (from UniProt P20963-1 22-164)",binding,binds
